{"source": "PubChem BioAssay AID504444", "about": "(National Center for Advancing Translational Sciences (NCATS), 2011)", "note": "Hit rate of the full screen: of about 360,000 compounds, about 7,500 (2.1%) were called active. Inconclusive results, whose numbers are uncertain, are shown with a selection of clear calls. Calls follow the shape of the dose curve; as a rule, active = well fitted inhibition curve with a large enough effect; inconclusive = small, poorly fitted or top-dose-only effect, or effect the other way; inactive = flat fitted curve, though single readings scatter. Where the call is inconclusive, the potency comes from a doubtful curve fit. % is scaled to controls: 0 for no effect and ±100 for the full control effect; potency is read from the fitted curve at half-maximal effect."}
{"assay": "Nrf2 qHTS screen for inhibitors; also: nearly all actives have a fitted effect of over 60% in size", "conditions": "A549 ARE-Fluc reporter, luciferase luminescence, 18-24 h; activity change, negative = inhibition: at 46 µM (top of the series)", "in_short": "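Nrf2 activity is the BugLite luminescence, read 15 min after reagent at room temperature, following CellTiter-Fluor cytotoxicity readout (30 min, 37C). Compound titrations were applied for 18-24 h to 5000 A549 ARE_Fluc cells/well in 5% FBS OPTI-MEM.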"}
{"smiles": "CC1CC(OC(=O)C(O)c2ccccc2)CC(C)(C)N1C", "note": "(stereo not drawn)", "Potency": "inconclusive: 32.6 µM [activator, partial curve, poor fit]"}
{"smiles": "O=C(CN1CCN(Cc2ccccc2)CC1)Nc1ccc(F)c(F)c1", "Potency": "inconclusive: 16.4 µM [falling, partial curve]"}
{"smiles": "O=S(=O)(Nc1nc2c(s1)CCCC2)c1ccc2ccccc2c1", "Potency": "inconclusive: 29.1 µM [falling, single point]"}
{"smiles": "Cc1ccc(N2C(=O)c3ccccc3C2C(=O)c2ccc(O)cc2O)cc1", "note": "(stereo not drawn)", "Potency": "inconclusive: 29.1 µM [activator, single point]"}
{"smiles": "CCC(Cc1ccccc1)NC(=O)C1=C(C)C(=O)OC12CCC(C)CC2", "note": "(stereo not drawn)", "activity change, negative = inhibition": "inactive: -4.35%"}
{"smiles": "O=C(c1ccc(N2CCN(C(=O)c3ccc(F)c(F)c3)CC2)cc1)c1cccc(F)c1", "Potency": "active: 16.4 µM"}
{"smiles": "Cc1cccc(NC(=O)c2nnn(CC(=O)Nc3ccc(C(C)C)cc3)c2N)c1C", "activity change, negative = inhibition": "inactive: 9.89%"}
{"smiles": "CCc1ccc2[nH]c(C(=O)Nc3ccc(C)c(F)c3)cc2c1", "Potency": "inconclusive: 13 µM [activator, partial curve, poor fit]"}
{"smiles": "COc1cc(/C=C/c2cc(OC(C)=O)c3ccccc3n2)c(OC(C)=O)c([N+](=O)[O-])c1", "Potency": "inconclusive: 14.6 µM [falling, partial curve, poor fit]"}
{"smiles": "COc1ccccc1Cn1c(=S)[nH]c2cc(C(=O)NCC(OC)OC)ccc2c1=O", "Potency": "inconclusive: 25.9 µM [falling, single point]"}
{"smiles": "O=C1C(=O)c2c(C(=O)c3ccccc3)coc2-c2ccccc21", "Potency": "inconclusive: 29.1 µM [falling, single point]"}
{"smiles": "COc1cc(CCN2C(=O)c3cccc4cccc(c34)C2=O)c(S(=O)(=O)N2CCCCCC2)cc1OC", "Potency": "inconclusive: 23.1 µM [falling, partial curve, poor fit]"}
{"smiles": "COc1ccc(/C=N/NC(=O)c2ccc(N(C)S(=O)(=O)c3ccccc3)cc2)c(OC)c1", "activity change, negative = inhibition": "inactive: 3.5%"}
{"smiles": "CCOC(=O)c1cnc2ccc(OCC)cc2c1NCCCN1CCOCC1", "Potency": "inconclusive: 18.4 µM [falling, single point]"}
{"smiles": "COC(=O)c1ccc(C(=O)OC)c(NC(=O)COC(=O)c2ccc(OC)c(OC)c2OC)c1", "activity change, negative = inhibition": "inactive: -10.2%"}
{"smiles": "CC(C)Nc1ccc(-c2nc(-c3ccco3)no2)cc1[N+](=O)[O-]", "Potency": "inconclusive: 29.1 µM [activator, single point]"}
{"smiles": "CCOC(=O)CC(=O)CSc1ncnc2c1cnn2-c1ccccc1", "Potency": "inconclusive: 2.59 µM [activator, full curve, poor fit]"}
{"smiles": "COc1ccc(CCNC(=O)CSCc2ccc(Br)cc2)cc1OC", "Potency": "inconclusive: 32.6 µM [falling, partial curve, poor fit]"}
{"smiles": "OC[C@H]1O[C@@H](n2cnc3c(NCc4ccco4)ncnc32)[C@H](O)[C@@H]1O", "Potency": "active: 8.2 µM"}
{"smiles": "Cc1nc(C)c(C(=O)N2CCCC(C(=O)c3ccc4ccccc4c3)C2)s1", "note": "(stereo not drawn)", "Potency": "inconclusive: 29.1 µM [falling, single point]"}
{"smiles": "CSC1=NC2(CCN(C(=O)NC3CCCCC3)CC2)N=C1c1ccc(C)c(C)c1", "activity change, negative = inhibition": "inactive: 3.85%"}
{"smiles": "COc1cccc(C(=O)Nc2cc(NC(=O)c3cccs3)ccc2C)c1", "Potency": "inconclusive: 32.6 µM [falling, single point]"}
{"smiles": "CC(C)Oc1ccc(C(=O)N(Cc2ccco2)c2ccccn2)cc1", "Potency": "inconclusive: 16.4 µM [activator, partial curve, poor fit]"}
{"smiles": "CC(=O)NS(=O)(=O)c1ccc(NC(=S)NC(=O)Cc2ccccc2)cc1", "Potency": "inconclusive: 0.092 µM [falling, full curve, poor fit]"}
{"smiles": "CN(Cc1nc(Cc2ccccc2F)no1)CC1(N2CCOCC2)CCCCC1", "activity change, negative = inhibition": "inactive: 2.15%"}
{"smiles": "Cc1ccc(SCc2ccc(C(=O)NCc3ccncc3)cc2)cc1", "Potency": "inconclusive: 16.4 µM [falling, single point]"}
{"smiles": "O=C(N/N=C/c1ccccc1Cl)c1cccc(F)c1", "Potency": "inconclusive: 0.184 µM [activator, full curve, poor fit]"}
{"smiles": "O=C(Nc1sc2c(c1C(=O)NCc1ccco1)CCCC2)c1cc(=O)c2ccccc2o1", "Potency": "inconclusive: 5.17 µM [activator, full curve]"}
{"smiles": "COc1ccc(OC)c(-c2csc(NC(=O)Cc3ccccc3)n2)c1", "Potency": "active: 18.4 µM"}
{"smiles": "O=C1CC(c2ccc3c(c2)OCO3)Sc2nc3ccccc3n21", "note": "(stereo not drawn)", "Potency": "inconclusive: 1.03 µM [activator, full curve]"}
{"smiles": "COc1ccc(Cn2c(-c3ccc(Cl)cc3)c[n+]3ccccc23)cc1", "Potency": "inconclusive: 1.84 µM [activator, full curve]"}
{"smiles": "COc1ccc(-c2nc(-c3ccc4c(c3)OCO4)[nH]c2-c2ccc(OC)cc2)cc1", "Potency": "active: 25.9 µM"}
{"smiles": "Cc1cc(C(F)(F)F)nn1CC(=O)NCc1ccco1", "Potency": "inconclusive: 0.0041 µM [falling, full curve, poor fit]"}
{"smiles": "COc1cccc(N=Cc2c(O)c3ccccc3oc2=O)c1", "Potency": "inconclusive: 9.2 µM [falling, partial curve]"}
{"smiles": "O=[N+]([O-])c1cc(Cl)ccc1-c1nc(-c2ccccc2)no1", "Potency": "inconclusive: 16.4 µM [activator, partial curve]"}
{"smiles": "O=C(c1cc(-c2ccc(Br)cc2)nc2ccccc12)N1CCN(c2ccccc2O)CC1", "Potency": "inconclusive: 32.6 µM [falling, single point]"}
{"smiles": "Cn1nccc1C(=O)Nc1sc2c(c1C(N)=O)CCCC2", "Potency": "inconclusive: 4.61 µM [activator, partial curve]"}
{"smiles": "CC(NC(=O)Nc1ccc(Cl)cc1)c1ccccc1", "note": "(stereo not drawn)", "activity change, negative = inhibition": "inactive: -22.3%"}
{"smiles": "Cc1cc(NC(=O)Cn2nc(C(=O)O)c3ccccc3c2=O)c([N+](=O)[O-])cc1C", "activity change, negative = inhibition": "inactive: -1.86%"}
{"smiles": "CCOC(=O)C1=C(COC(=O)C(CC)c2ccccc2)NC(=O)NC1C", "note": "(stereo not drawn)", "activity change, negative = inhibition": "inactive: -11.8%"}
{"smiles": "CCOC(=O)c1cc(CC)sc1NC(=O)c1ccc2c(c1)OCCO2", "activity change, negative = inhibition": "inactive: -5.41%"}
{"smiles": "CC(C)(C)NC(=O)C[C@H]1C[C@H](C(=O)N2CCOCC2)[C@@]2(CCC3CCCC3)c3[nH]c4ccc(Cl)cc4c3CCN2C1=O", "Potency": "inconclusive: 18.4 µM [falling, single point]"}
{"smiles": "CCOc1ccccc1NC(=O)CN(C)S(=O)(=O)c1ccc2nc(C)sc2c1", "activity change, negative = inhibition": "inactive: -20.3%"}
{"smiles": "CCOc1cc(Br)c(CC(=O)NC2CCCCCC2)cc1OCC", "activity change, negative = inhibition": "inactive: -13.2%"}
{"smiles": "COc1cccc(S(=O)(=O)Nc2cccc(C(=O)N3CCOCC3)c2)c1", "Potency": "inconclusive: 5.8 µM [activator, single point]"}
{"smiles": "CCS(=O)(=O)N1Cc2ccccc2CC1C(=O)Nc1nc2ccc(F)cc2s1", "note": "(stereo not drawn)", "Potency": "inconclusive: 3.66 µM [activator, partial curve]"}
{"smiles": "Cc1ccc(NC(=O)Nc2ccc3snnc3c2)cc1C", "Potency": "inconclusive: 25.9 µM [falling, single point]"}
{"smiles": "O=C(O)C[C@H]1c2ccc(C(F)(F)F)cc2S(=O)(=O)N1C1CCCCC1", "Potency": "inconclusive: 8.2 µM [falling, partial curve, poor fit]"}
{"smiles": "O=C(CNC(=O)c1cccc(Br)c1)N/N=C/c1cn[nH]c1-c1ccccc1", "Potency": "inconclusive: 8.2 µM [falling, partial curve, poor fit]"}
{"smiles": "CC(CC(=O)Nc1ncc([N+](=O)[O-])s1)c1ccccc1", "note": "(stereo not drawn)", "Potency": "inconclusive: 18.4 µM [falling, partial curve, poor fit]"}
{"smiles": "CCN(c1ccccc1)c1nnc(NC(=O)Nc2ccccc2F)s1", "Potency": "inconclusive: 8.2 µM [falling, partial curve, poor fit]"}
{"smiles": "CCN(CC)C(=O)C1CCCN(C(=O)Nc2ccc3nsnc3c2)C1", "note": "(stereo not drawn)", "Potency": "inconclusive: 6.51 µM [activator, single point]"}
{"smiles": "CCc1ccc(CN(Cc2ccco2)c2cnc(S(C)(=O)=O)nc2C(=O)Nc2ccccc2Cl)cc1", "activity change, negative = inhibition": "inactive: 16.7%"}
{"smiles": "COc1ccc(/C=C(\\C#N)C(=O)Nc2cc(C)c(Cl)cc2OC)cc1O", "activity change, negative = inhibition": "inactive: -6.83%"}
{"smiles": "CC1=C(C(=O)Nc2ccccc2C(F)(F)F)C(c2sccc2C)NC(=S)N1", "note": "(stereo not drawn)", "Potency": "inconclusive: 2.06 µM [falling, full curve, poor fit]"}
{"smiles": "Nc1ccc2c(c1)-c1ccccc1S(=O)(=O)N2", "activity change, negative = inhibition": "inactive: 5.29%"}
{"smiles": "O=C(NCC1CCCN(C2Cc3ccccc3C2)C1)c1cccs1", "note": "(stereo not drawn)", "activity change, negative = inhibition": "inactive: 0.812%"}
{"smiles": "COc1cc(C)ccc1NC(=O)Cc1csc(NC(=O)Nc2ccccc2OC)n1", "Potency": "inconclusive: 29.1 µM [falling, single point]"}
{"smiles": "COc1ccc(CC(=O)Nc2cccc(S(=O)(=O)N3CCCCCC3)c2)cc1OC", "Potency": "active: 1.84 µM"}
{"smiles": "Fc1ccc(Nc2c3c(nc4ccccc24)CCC3)cc1", "Potency": "inconclusive: 29.1 µM [falling, single point]"}
{"smiles": "Cc1ccsc1C1Nc2ccc3ncccc3c2C2=C1C(=O)CCC2", "note": "(stereo not drawn)", "Potency": "inconclusive: 6.51 µM [activator, single point]"}
{"smiles": "CCc1nnc(SC(CC)C(=O)Nc2cccc(OC)c2)c2cc3oc(C)cc3n12", "note": "(stereo not drawn)", "Potency": "inconclusive: 20.6 µM [falling, single point]"}
{"smiles": "Cc1cc(NC(=O)c2cnn3c(C(F)F)cc(C4CC4)nc23)no1", "activity change, negative = inhibition": "inactive: -8.69%"}
{"smiles": "C=CCNc1oc(-c2ccc(OC)cc2)nc1C#N", "Potency": "inconclusive: 29.1 µM [falling, single point]"}
{"smiles": "c1csc(-c2noc(COc3ccc4c(c3)CCCC4)n2)c1", "Potency": "inconclusive: 2.06 µM [activator, full curve]"}
{"smiles": "Cn1c(=O)oc2cc(S(=O)(=O)N3CCCC(C(=O)NCC4COc5ccccc5O4)C3)ccc21", "note": "(stereo not drawn)", "Potency": "inconclusive: 23.1 µM [falling, single point]"}
{"smiles": "COc1cccc(N2CCN(C3C(=O)c4ccccc4N3C(C)=O)CC2)c1", "note": "(stereo not drawn)", "Potency": "inconclusive: 25.9 µM [activator, partial curve, poor fit]"}
{"smiles": "COc1cccc(C2C(C(=O)Nc3ccc(C)cc3C)=C(C)Nc3c(C(=O)Nc4cccc(C)c4)cnn32)c1OC", "note": "(stereo not drawn)", "activity change, negative = inhibition": "inactive: -15.8%"}
